Patent US20040110161
For some assays here: The comparison behind a weaker result is the experiment's own reference, which may not be listed here. For some assays here: For at least one entry, the source does not settle the construct or the ends of the probe. For some assays here: The direction of at least one scale is not stated here.

Protein sequences, listed by entry. Tags and fused reporters are not part of them. Lines headed by an entry give the natural chain unless they say otherwise; changes in a name come on top. Residues count along the entry.
UniProt P23909: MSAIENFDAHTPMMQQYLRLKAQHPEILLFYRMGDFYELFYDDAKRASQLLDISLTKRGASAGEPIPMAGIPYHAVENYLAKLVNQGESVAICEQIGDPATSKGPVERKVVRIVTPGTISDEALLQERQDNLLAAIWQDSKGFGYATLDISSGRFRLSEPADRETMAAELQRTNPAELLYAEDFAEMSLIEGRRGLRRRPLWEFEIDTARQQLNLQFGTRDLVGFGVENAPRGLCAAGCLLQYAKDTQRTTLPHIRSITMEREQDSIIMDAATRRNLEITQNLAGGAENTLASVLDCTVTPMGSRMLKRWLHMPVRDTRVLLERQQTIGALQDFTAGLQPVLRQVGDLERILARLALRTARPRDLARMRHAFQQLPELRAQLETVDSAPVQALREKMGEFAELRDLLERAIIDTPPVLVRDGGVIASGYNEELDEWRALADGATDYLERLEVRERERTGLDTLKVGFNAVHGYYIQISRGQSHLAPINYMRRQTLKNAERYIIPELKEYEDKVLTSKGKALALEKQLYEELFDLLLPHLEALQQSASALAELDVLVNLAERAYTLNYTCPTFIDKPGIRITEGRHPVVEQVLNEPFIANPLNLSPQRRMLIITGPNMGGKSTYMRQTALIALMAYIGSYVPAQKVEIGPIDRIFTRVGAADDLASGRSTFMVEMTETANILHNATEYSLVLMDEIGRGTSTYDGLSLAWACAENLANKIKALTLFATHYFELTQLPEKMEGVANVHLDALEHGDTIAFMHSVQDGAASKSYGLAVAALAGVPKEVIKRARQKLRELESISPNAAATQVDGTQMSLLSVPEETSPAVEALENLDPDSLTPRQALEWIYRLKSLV
UniProt Q56215: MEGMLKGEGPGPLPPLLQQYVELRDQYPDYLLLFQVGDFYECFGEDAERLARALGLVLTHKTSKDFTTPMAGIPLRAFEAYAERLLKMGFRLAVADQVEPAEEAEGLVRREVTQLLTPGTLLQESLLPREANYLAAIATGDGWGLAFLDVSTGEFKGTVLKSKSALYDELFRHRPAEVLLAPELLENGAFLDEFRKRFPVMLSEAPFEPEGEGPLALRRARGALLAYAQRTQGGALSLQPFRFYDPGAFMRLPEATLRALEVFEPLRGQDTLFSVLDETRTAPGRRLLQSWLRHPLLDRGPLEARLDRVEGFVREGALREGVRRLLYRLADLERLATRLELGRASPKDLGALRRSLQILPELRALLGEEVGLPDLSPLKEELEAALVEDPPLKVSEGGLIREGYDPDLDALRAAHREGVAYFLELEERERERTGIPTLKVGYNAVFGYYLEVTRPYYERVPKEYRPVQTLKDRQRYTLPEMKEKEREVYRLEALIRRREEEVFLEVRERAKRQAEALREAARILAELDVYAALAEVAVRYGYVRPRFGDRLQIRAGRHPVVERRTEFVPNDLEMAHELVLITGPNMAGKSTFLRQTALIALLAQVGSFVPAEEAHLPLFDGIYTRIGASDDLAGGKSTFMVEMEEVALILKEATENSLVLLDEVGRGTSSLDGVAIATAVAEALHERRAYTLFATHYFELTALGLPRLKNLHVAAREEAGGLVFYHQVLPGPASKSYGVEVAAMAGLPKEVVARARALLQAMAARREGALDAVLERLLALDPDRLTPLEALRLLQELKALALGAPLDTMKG
UniProt Q56239, 2-819: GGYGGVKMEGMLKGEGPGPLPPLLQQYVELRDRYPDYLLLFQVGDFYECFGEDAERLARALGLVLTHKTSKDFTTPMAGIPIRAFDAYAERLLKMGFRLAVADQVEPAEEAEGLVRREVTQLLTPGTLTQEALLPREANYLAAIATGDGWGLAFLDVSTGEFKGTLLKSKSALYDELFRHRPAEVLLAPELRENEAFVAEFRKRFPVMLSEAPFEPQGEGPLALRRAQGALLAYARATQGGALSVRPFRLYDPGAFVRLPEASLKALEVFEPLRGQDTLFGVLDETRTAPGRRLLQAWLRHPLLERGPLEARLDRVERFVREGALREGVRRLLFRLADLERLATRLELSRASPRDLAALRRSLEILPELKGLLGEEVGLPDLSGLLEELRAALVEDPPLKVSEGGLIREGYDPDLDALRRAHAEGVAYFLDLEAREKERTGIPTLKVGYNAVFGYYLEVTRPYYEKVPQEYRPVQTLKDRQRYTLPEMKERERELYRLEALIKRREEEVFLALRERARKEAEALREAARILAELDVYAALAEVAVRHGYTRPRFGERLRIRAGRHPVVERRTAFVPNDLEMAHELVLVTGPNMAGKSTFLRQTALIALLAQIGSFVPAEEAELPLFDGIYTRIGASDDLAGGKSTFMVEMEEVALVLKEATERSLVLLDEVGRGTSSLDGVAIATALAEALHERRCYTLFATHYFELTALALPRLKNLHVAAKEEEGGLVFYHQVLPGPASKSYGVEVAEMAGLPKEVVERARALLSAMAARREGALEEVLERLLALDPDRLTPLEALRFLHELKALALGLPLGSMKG

Columns and labels:
[1] = biological target: MutS (Cy5-labeled) (Escherichia coli) (UniProt P23909); assay: EMSA; conditions: 150 mM KCl, 10 mM MgCl2; purified recombinant protein; label: 5'-biotin (SPR), 5'-32P (EMSA)
[2] = biological target: MBP-MutS fusion (Cy5-labeled) (Escherichia coli) (UniProt P23909); assay: SPR; conditions: protein details: N-terminal MBP (pMALc2x-mutS plasmid SEQ:9), label: 5'-biotin, variant of sense(36)/AT
[3] = biological target: MutS (Cy5-labeled) (Thermus aquaticus) (UniProt Q56215); assay: binding assay; conditions: hydrogel chip fluorescence; purified recombinant protein; protein details: Cy5, Epicentre; label: 5'-biotin, 5'-Cy3; variant of sense/AT perfect duplex
[4] = biological target: MutS (Cy5-labeled) (Escherichia coli) (UniProt P23909); assay: binding assay; conditions: hydrogel chip fluorescence; purified recombinant protein; label: 5'-biotin, 5'-Cy3; variant of sense/AT perfect duplex
[5] = biological target: MutS (Cy5-labeled) (Thermus thermophilus) (UniProt Q56239); assay: binding assay; conditions: hydrogel chip fluorescence, purified recombinant protein, protein details: Cy5, label: 5'-biotin, 5'-Cy3
[6] = biological target: MBP-MutS fusion (Cy5-labeled) (Escherichia coli) (UniProt P23909); assay: binding assay; conditions: hydrogel chip fluorescence; purified recombinant protein; protein details: N-terminal MBP (pMALc2x-mutS plasmid SEQ:9), Cy5; label: 5'-biotin, 5'-Cy3; variant of sense/AT perfect duplex
[7] = text says bound better than AT, value is lower, purified recombinant protein
[8] = detector saturated, variant of sense/AT perfect …

Row | Sequence | binding signal [2, 7] [RU] | binding signal [3] [fold vs AT] | binding signal [4] [fold vs AT] | binding signal [6] [fold vs AT] | other results
1 | AAGCATACGGAAGTTAAAGTGCGGATCATCTCTAGC / TGGCTAGAGATGATCCGCACTTTAACTTCCGTATGC [sense(36)/AT] | – | – | – | – | binding result [1]: binds more weakly
2 | AAGCATACGGAAGTTAAAGTGCGGATCATCTCTAGC / TGGCTAGAGATGATCCGCACTTTTAACTTCCGTATGC [sense(36)/ins+1T] | 127 | – | – | – | –
3 | AAGCATACGGAAGTTAAAGTGCGGATCATCTCTAGCCA / TGGCTAGAGATGATCCGCACTTTTAACTTCCGTATGC [sense/ins+1T] | – | 43.4 | 16.5 | 3 | binding signal [5, 8]: 7.02 fold vs AT
4 | AAGCATACGGAAGTTAAAGTGCGGATCATCTCTAGC / TGGCTAGAGATGATCCGCACTTTTTAACTTCCGTATGC [sense(36)/ins+2T] | – | – | – | – | binding signal ([2]; 50 mM KCl, 5 mM MgCl2, purified recombinant protein): 1960 RU
5 | AAGCATACGGAAGTTAAAGTGCGGATCATCTCTAGC / TGGCTAGAGATGATCCGCTCTTTAACTTCCGTATGC [sense(36)/TT] | 71.1 | – | – | – | –
6 | AAGCATACGGAAGTTAAAGTGCGGATCATCTCTAGCCA / TGGCTAGAGATGATCCGCACTTTTTAACTTCCGTATGC [sense/ins+2T] | – | 71.8 | 16.9 | 3.37 | binding signal [5, 8]: 7.02 fold vs AT
7 | AAGCATACGGAAGTTAAAGTGCGGATCATCTCTAGCCA / TGGCTAGAGATGATCCGCACTTTTTTAACTTCCGTATGC [sense/ins+3T] | – | 1 | 1.82 | 1.56 | binding signal ([5]; variant of sense/AT perfect duplex): 1.32 fold vs AT
8 | AAGCATACGGAAGTTAAAGTGCGGATCATCTCTAGC / TGGCTAGAGATGATCCGCCCTTTAACTTCCGTATGC [sense(36)/CT] | 73.6 | – | – | – | –
